For assay [1], the target named is T1, Flag–PTP1B (UniProt P18031).
T1 sequence: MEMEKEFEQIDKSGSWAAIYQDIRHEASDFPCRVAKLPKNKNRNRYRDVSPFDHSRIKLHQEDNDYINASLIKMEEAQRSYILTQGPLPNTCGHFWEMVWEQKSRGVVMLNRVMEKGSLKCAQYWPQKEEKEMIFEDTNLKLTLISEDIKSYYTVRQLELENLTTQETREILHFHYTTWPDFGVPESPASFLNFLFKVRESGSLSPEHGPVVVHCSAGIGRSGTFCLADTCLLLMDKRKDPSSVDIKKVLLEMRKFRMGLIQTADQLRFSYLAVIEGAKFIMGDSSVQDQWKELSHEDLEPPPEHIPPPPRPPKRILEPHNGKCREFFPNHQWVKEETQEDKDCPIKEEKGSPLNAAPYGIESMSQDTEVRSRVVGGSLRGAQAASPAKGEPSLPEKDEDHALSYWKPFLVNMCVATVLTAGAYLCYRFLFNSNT
Briefly: co-IP; HEK293 cells co-transfected, serum-starved 16 h, stimulated with EGF (50 ng/ml) for the indicated times (0 or 10 min for EGFR); cells treated with control or LRRK1 siRNA in the EGFR experiment; RIPA lysates; IP with anti-Flag (M2) on Dynabeads Protein G, 2 h at 4°C; blot with anti-GFP or anti-EGFR.

Sequences of proteins named here, by UniProt entry; tags and fusion partners are left off. Residues count along the entry.
UniProt Q38SD2, residues 28-2015: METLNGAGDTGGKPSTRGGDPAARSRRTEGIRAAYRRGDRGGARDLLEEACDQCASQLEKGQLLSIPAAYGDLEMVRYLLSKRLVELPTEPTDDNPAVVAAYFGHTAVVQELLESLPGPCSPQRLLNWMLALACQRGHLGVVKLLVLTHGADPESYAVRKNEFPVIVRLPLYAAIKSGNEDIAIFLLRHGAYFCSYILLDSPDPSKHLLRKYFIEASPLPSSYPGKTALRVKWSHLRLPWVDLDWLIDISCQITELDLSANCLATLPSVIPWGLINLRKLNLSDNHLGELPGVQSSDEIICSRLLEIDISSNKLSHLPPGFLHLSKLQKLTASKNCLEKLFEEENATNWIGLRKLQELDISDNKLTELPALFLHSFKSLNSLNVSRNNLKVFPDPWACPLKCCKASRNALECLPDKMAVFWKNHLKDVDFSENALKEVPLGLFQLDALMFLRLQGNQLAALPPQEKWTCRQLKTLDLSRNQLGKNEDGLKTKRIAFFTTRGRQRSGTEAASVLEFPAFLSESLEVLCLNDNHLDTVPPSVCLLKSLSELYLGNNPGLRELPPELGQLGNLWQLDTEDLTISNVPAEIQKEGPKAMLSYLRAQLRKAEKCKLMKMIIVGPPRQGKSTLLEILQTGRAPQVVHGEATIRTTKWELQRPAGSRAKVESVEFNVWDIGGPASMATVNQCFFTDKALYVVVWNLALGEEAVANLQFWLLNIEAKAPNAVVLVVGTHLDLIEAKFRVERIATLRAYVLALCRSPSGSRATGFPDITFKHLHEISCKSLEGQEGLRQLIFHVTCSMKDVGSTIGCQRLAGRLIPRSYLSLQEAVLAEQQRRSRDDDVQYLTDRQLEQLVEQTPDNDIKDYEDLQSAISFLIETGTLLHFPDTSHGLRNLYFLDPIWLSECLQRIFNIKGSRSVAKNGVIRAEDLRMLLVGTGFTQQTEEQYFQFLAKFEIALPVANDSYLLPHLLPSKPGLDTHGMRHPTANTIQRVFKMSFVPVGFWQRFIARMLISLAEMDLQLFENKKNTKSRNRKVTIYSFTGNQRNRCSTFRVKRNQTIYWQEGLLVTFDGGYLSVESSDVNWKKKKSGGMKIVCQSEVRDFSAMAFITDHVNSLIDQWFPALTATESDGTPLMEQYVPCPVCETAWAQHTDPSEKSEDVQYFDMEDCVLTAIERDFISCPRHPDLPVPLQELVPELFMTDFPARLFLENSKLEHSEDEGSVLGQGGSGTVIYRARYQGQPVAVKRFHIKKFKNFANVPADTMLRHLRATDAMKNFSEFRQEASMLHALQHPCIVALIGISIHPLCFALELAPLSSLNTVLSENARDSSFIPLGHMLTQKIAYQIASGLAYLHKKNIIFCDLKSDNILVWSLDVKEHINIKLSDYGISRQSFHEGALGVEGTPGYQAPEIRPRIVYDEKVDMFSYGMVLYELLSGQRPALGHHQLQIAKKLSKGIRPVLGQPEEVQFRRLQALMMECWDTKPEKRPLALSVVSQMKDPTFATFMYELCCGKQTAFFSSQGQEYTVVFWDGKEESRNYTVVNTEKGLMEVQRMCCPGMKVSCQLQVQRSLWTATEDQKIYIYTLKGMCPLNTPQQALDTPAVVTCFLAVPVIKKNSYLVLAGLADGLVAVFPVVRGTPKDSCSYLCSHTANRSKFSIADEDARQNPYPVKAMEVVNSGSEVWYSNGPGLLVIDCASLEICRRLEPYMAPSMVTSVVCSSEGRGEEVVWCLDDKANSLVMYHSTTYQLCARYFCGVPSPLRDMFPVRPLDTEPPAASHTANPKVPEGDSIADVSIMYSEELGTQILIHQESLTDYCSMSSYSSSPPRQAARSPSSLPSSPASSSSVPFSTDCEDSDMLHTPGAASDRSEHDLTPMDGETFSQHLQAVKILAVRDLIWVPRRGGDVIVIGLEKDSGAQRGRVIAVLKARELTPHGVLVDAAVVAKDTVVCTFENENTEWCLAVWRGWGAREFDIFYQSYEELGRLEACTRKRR

Assay [2] addresses T2, Flag–PTP1B(C215S) (UniProt P18031).
T2 sequence: T1 sequence with C215S
The assay is described as above.

Residue numbers refer to the chain shown, from its start. No constants are given. Whether binding was seen depends on the method and setting. Binding seen in cells or lysates may run through a third protein. Some binding calls cover weakened binding; strength is not graded here. Tags and fused reporters may be left off the sequences shown.

For “GFP–LRRK1 (leucine-rich repeat kinase 1) (from UniProt Q38SD2-1 28-2015)”, the binding entry in assay [1] and in assay [2] was “binds” in each case.

The record behind these values is article PMC10022742.
